Consider 1 molecule from article PMC12287301.

By UniProt entry, the sequences of proteins in these tests, tags left out. Where a name states a change or a piece, a line headed by the entry shows the natural chain unless it says otherwise.
UniProt Q9CAG8: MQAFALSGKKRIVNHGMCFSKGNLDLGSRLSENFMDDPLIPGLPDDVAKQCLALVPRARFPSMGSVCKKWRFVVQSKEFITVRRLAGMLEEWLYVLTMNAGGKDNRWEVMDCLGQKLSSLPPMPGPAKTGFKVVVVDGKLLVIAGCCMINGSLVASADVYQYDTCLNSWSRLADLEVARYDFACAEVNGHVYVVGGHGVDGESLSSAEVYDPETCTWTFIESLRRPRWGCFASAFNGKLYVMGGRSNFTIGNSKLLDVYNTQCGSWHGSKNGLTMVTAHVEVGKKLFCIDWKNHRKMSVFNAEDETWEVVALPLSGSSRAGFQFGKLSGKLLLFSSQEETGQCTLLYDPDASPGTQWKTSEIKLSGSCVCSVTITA

Results are given in words; binding and its absence hold for the method and conditions named. Binding seen in cells or lysates may run through a third protein. Binding can be weak; no strength is given. Tags and fused reporters may be left off the sequences shown.

The test deals with HA-LAO1 (Arabidopsis thaliana) (UniProt Q9CAG8). As to the kind of experiment: pull-down; semi-in vivo pull-down: HA-LAO1 enriched from 35S: HA-LAO1 seedling extract on anti-HA affinity beads, washed, mixed with 1 ug purified His-tagged protein for 3 h at 4 C in IP buffer (50 mM Tris-HCl pH 7.5, 150 mM NaCl, 1 mM MgCl2, 0.1% NP40); blots anti-His and anti-HA; only the binder purified.

B1: His-DSK2B (protein, UniProt Q9SII8 1-551)
chain: MGGEGDSSQPQSGEGEAVAVNIRCSNGTKFSVKTSLDSTVESFKELVAQSSDVPANQQRLIYKGRILKDDQTLLSYGLQADHTIHMVRGSAPSSAPPPAPAASQTTAPSVTRGVGSDNSSNLGGASPGESLFPGLGFNPLGGGNAMSGLFGAGLPDLVQTQQQLAQNPNMIRDMMNTPAIQNLMNNPEFMRSMIMNNPQMRELVDRNPELGHVLNDPSILRQTLEAARNPELMREMMRNTDRAMSNIESMPEGFNMLRRMYENVQEPLMNATTMSGNAGNNTGSNPFAALLGNQGVTTQGSDASNNSSTPNAGTGTIPNANPLPNPWGATGGQTTAPGRTNVGGDARSPGLGGLGGLGSLGGLGGLGMLGADSPLGATPDASQLSQLLQNPAISQMMQSVFSNPQYMNQLMSLNPQLRSMLDSNPQLREMMQNPDFLRQFSSPEMMQQMMTLQQSLSQNRNTASQDAGQTGAATGNNGGLDLLMNMFGSLGAGGLSGTNQSNVPPEERYATQLQQLQEMGFYDRAENIRALLATNGNVNAAVERLLGSIGQ
Take B1: the binding entry is listed as “binds”.
